Counter-ions that a name gives are not always drawn. Like-named read-outs stand apart in the source and are kept apart here.
Tests used:
[1] = Particle sizing, Example 3: hydrophobic vs hydrophilic drug precipitated without sonication; format: physicochemical; settings: crystallised from a saturated methanol solution at 10° C., 15 minutes
Source text: The following sizing parameters were used (see table 2). [table] The procedure set out in example 1 was followed. […] The following parameters were used whilst undertaking precipitation (table 5). [table]

[2] = for Diameters dv(0.1) / Diameters dv(0.5) / Diameters dv(0.9): sonocrystallised 15 °C, 2 ml sat. methanol solution, precipitant acetonitrile, amplitude 100%, cycle 0.75
[3] = 'Volume of water (ml)' 50.0, filtered powder

COc1ccc(CC(C)NCC(O)c2ccc(O)c(NC=O)c2)cc1 (stereo not shown) [formoterol, formoterol fumarate dihydrate]
Diameters dv(0.1) [1]: 6.4 μm | Diameters dv(0.5) [1]: 19.3 μm | Diameters dv(0.9) [1]: 41.1 μm | Diameters dv(0.1) ([2]; 'Volume of water (ml)' 12.5): 4.76 μm | Diameters dv(0.5) ([2]; 'Volume of water (ml)' 12.5): 11.85 μm | Diameters dv(0.9) ([2]; 'Volume of water (ml)' 12.5): 24.18 μm | Diameters dv(0.1) ([2]; 'Volume of water (ml)' 25.0): 5.39 μm | Diameters dv(0.5) ([2]; 'Volume of water (ml)' 25.0): 18.65 μm | Diameters dv(0.9) ([2]; 'Volume of water (ml)' 25.0): 39.84 μm | Diameters dv(0.1) ([2]; 'Volume of water (ml)' 37.5): 3.65 μm | Diameters dv(0.5) ([2]; 'Volume of water (ml)' 37.5): 12.35 μm | Diameters dv(0.9) ([2]; 'Volume of water (ml)' 37.5): 31.84 μm | Diameters dv(0.1) [2, 3]: 4.39 μm | Diameters dv(0.5) [2, 3]: 13.22 μm | Diameters dv(0.9) [2, 3]: 30.33 μm | Diameters dv(0.1) ([2]; 'Volume of water (ml)' 62.5): 4.55 μm | Diameters dv(0.5) ([2]; 'Volume of water (ml)' 62.5): 11.72 μm | Diameters dv(0.9) ([2]; 'Volume of water (ml)' 62.5): 24.93 μm | dv(0.9) ([2]; volume of acetonitrile 50 ml, suspension sized straight after precipitation (with no filtration)): 11.16 μm

— patent publication US20060188579A1, “Novel process” (priority 2003, published 2006)
